Results are given in words; binding and its absence hold for the method and conditions named. Some results given as binding are weak or reduced against the parent protein; the word gives no strength.
Assays:
[1] = molecular target: α protein of group B Streptococcus, purified from GBS cultures (Streptococcus agalactiae (GBS)) (UniProt Q02192); test: condition: 30 μg/ml (legend; the methods say 10 μg/ml); far-Western, overlay or dot blot; purified GBS proteins separated by non-reducing SDS-PAGE, blotted, probed with rCEACAM1-His at 4°C; both purified
[2] = molecular target: β-IgI3 domain of GBS β protein, tag removed with carboxypeptidase A (crystallised form) (Streptococcus agalactiae (GBS)); test: crystal structure; (β-IgI3)-(CEACAM1-N) complex, 3.25 Å, 1.8 M ammonium sulphate, 0.1 M sodium citrate pH 5.5; contacts by NCONT (CCP4), cut-off 4.0 Å; both purified
[3] = molecular target: glycosylated recombinant CEACAM1 extracellular domain (rCEACAM1-His) (human) (UniProt P13688); test: flow cytometry of coated dynabeads; rCEACAM1-His on nickel dynabeads, pre-incubated with rHopQ 1 h at 4 °C; β-IgSF-biotin coupled to streptavidin-PE (tetramers, 3 µg/mL); PBS + 0.1% BSA; both purified

By UniProt entry, the sequences of proteins in these tests, tags left out. Chains listed by the source or under a name are the forms on record and can include a tag or linker. Residues count along the entry.
UniProt Q02192, residues 42-990: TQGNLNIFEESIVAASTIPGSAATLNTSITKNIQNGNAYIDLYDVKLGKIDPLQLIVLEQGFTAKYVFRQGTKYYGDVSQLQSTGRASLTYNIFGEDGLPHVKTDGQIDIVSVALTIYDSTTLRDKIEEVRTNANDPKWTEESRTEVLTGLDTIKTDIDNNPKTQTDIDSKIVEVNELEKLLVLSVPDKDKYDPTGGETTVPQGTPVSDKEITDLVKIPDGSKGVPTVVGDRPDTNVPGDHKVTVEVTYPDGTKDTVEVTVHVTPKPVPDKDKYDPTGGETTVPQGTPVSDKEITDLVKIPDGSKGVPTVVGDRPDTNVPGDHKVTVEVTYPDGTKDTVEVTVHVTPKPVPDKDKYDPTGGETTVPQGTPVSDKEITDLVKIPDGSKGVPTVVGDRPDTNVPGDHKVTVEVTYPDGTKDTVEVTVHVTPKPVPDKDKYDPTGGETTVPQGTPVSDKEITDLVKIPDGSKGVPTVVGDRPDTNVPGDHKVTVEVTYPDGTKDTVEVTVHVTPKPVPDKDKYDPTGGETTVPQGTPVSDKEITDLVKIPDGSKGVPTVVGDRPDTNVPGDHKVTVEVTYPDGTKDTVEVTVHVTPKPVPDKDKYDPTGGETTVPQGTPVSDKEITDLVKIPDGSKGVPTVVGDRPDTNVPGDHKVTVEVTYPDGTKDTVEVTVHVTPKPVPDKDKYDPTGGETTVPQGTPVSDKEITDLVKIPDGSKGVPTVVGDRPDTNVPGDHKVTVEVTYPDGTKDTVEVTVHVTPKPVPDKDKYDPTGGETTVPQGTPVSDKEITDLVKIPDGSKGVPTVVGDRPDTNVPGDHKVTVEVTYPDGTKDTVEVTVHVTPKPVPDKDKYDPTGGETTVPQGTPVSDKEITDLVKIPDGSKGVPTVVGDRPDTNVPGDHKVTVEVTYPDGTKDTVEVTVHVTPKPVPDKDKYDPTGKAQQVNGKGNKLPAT
tag-less unglycosylated CEACAM1 N-terminal domain (rCEACAM1-N, pET21d) (P13688, residues 34-141): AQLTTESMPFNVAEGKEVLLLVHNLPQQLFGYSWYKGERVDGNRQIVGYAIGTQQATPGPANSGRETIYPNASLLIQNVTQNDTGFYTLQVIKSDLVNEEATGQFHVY
glycosylated recombinant CEACAM1 extracellular domain (rCEACAM1-His) (P13688, residues 35-428): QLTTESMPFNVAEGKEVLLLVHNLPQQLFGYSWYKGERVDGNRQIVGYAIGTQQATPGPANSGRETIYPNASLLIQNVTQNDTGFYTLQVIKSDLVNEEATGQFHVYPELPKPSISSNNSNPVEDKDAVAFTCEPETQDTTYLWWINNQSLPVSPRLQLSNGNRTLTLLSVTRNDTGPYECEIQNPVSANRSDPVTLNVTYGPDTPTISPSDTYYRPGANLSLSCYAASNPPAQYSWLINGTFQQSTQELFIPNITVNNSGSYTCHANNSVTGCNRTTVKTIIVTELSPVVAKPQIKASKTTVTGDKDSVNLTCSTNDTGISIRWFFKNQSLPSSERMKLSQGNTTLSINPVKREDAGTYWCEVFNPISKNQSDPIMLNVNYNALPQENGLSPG

For “recombinant human CEACAM1, extracellular domain, 6xHis tagged, glycosylated (from UniProt P13688 35-428) (receptor)”, the binding [1] was “no binding”.

For “tag-less unglycosylated CEACAM1 N-terminal domain (rCEACAM1-N, pET21d) (from UniProt P13688 34-141) (domain or fragment)”, the binding [2] was “binds”.

B1: biotinylated β-IgSF domain of GBS β protein (β-IgSF-biotin) (domain or fragment)
chain: ANENNQQKIELTVSPENITVYEGEDVKFTVTAKSDSKTTLDFSDLLTKYNPSVSDRISTNYKTNTDNHKIAEITIKNLKLNESQTVTLKAKDDSGNVVEKTFTITVQKKEEKQ
modifications: biotin, C-terminal
B1 was tested, and the binding [3] was “binds”.
